{
  "source": "paper PMC6105217",
  "binders": {"B1": {"name": "Xylose isomerase (protein, UniProt Q97UG9 1-237)", "chain": "MFLSSMKLGIQSYSLRKLTYENALKVMSELGISYVEAFPRHLPPSSNSVKDIINLHKENGVKVIAHGVNHLKSDKKELRSIFDFANKVEIEVITADPDEDCLNLMSDLVKEYDIKVAIHNHGPYHRWGSYKKIYEFTKNLDYRVGMCLDLAHLFRYGENPIEAVNTLRDRIHDIHVKDVNNKGEDVIVGSGILDVKGVIGKVKELNLDIPLMIEYEPEPENPLPGIVKSLEYVKKLL"}, "B2": {"name": "Serine hydroxymethyltransferase (protein, UniProt Q9UWT5 1-433)", "chain": "MSLPKELEKVLEITKAQNVWRRTQTLNLIASENVMSPLAESVYMSDFMSRYAEGKPYKRYYQGTKYTDEIETLTMELMNEITNSKDCDLRPTSGTIANAAVFRVLAEPGDKALIAPVQAGAHVSHTKFGTLGALGIQHIEMPFDEENINVDVDKAIKMIEEVKPKFVVLGGSLYLFPHPTKELAQHVHAVGAKLVYDAAHVYGLIEGKVWSNPLKDGADIMTVSTHKTFPGPQGGAIFSDGSEVFKQVSKTIFPWFVSNHHLHRLPATAVTAIEMKYFGESYANQILRNSKALAEALAERGFKVIGENLGYTKSHQVAVDVRQFGGGNKIAKLLEDANIIVNKNLLPYDKPEDVSDPSGLRIGVQEMTRYGMKEGEMEEIAELFKKVIIDKKDVNEVKKEVIEMRRNFLEVKYTFDDMKDLEKYSSKSLKLII"}, "B3": {"name": "Dehydrogenase (protein, UniProt Q97V56 1-292)", "chain": "MEDVKKFKYFTVSPLAFGTWRIGGGYWYSSHDRDNEWVGAIRRAIELGLRVIDTAEMYGNGHAEELVGEAIKEFSREELFIVSKVWPSHADYDNVIKSAKNSSRRLGTYIDLYLLHAPSRVPICKTIRAFEKLVDDGVIRFFGLSNFDVDQIESARECVSKYEIVAIQNHYSLLSRSDERRALAYAEKNGLMYMAYTPLENGILARNEFLANIGKKYNKTATQVALNWYITGKNSLIPIVKASKIPHIEENAGAMGWRLSEEDWRAIDEHFREKSYFLDKFVSSLKSMRPWS"}, "B4": {"name": "Alpha-mannosidase (protein, UniProt Q97UK5 1-968)", "chain": "MRNINELEARLILTLGNSFRNLRQLRWNLENHNKAYLEIEGKGNSYLLIVDHKGSGLIRLDDKPYFELDRYHTLIPIPFGNHKISLELSHYMDFGEKVDISAGIPFYTEIDSNAYKLYVYGSQILDLVRSINDNEVKDDLISALSKALHEAYFETISKEQLFILSKLIRTTLDVSRMVQEIEEPLDVYKEDENRSKFEGALNTLRSELSKLVNKYGKRGVLVGTGHAHIDTAWLWPFDETRRKVLRTFSTILTLLDKYDFHFIQSAAIYYEWVKADSPELFVRIKEKVKEGKWELAALYVESDANMVSGESLARQFLYSQRFYLENFGKLANILWLPDTFGFSASLPQIAKLGGVKAFATHKVFWNDTNKFPYNVFKWVGPNGDYLPAIAFGHGKGGYNSDFSASSVLEQYNNWAQKDQPMLYSYGYGDGGGGPNEDMLIRAEAVNLLPILPKVELSGVNSYIQRIVPVEEWRGELYLETHRGVLTSHSKMKLLNRSAEIALREAELWSTLARTYDKEVFTKLWKVVLKDQFHDVLPGSAIKDVYKVAYQELEEVINKANNVASEAMQKLVGGSGDKTFVFNSLSWDREEYIEADGKLVKVRVPSVGFSLLEPVEVRDKAVINENNAEYLVENKYFRVRISKSGQVLSLFDKEANREVLRDKSNLLIAYENIPGWADAWDIEKGFEDRSFEIRASSSEIVNNDGIVASIKFTYKFRRSEIIQIVRVYADSRRIDFITTLRMRDRELLVKSWFNFDLNVERAVSDIPFGVVERFTWSNTSWDKARFEVPIQKFVDFSESEYGAALLNNGKYGATLRGSSVGLSLTKTPIYPDPSTDLEEVTFIYSLYPHIGDWKRAEVIKRAYELNVPLRVVKGVSEVKRKSFIRINDSKLILEAVKVAEDDNNSVVLRLYEYENTRGEAYVEVPFNVTEARSLDLLELNEVPRDIVIEGNRIKVKYKNRDILTISVRG"}, "B5": {"name": "Nad kinase (protein, UniProt Q97WJ8 1-249)", "chain": "MRVKIVSKPTSQLNYTVEKIKNISNKLGFEVVDIDFDYVIAVGGDGTLLRAVKLGKPVIAIKAGRRGLLMDVPVDKIEDALLRLKKGDYNEEEYMLLEMVHNDKVELGFNEIGILYDRPEAIKVGISFDTERVSVEGDGVLVSTPQGSSGWGMSATNSLLYKDLNAIEIIFVNPIFYYLRSVVIPPKSLILRLEDKGYPQTARVVVDGEVVTLIKTNQEITVRVSQHKAKILRFFKLDLIGEVLHAYHI"}, "B6": {"name": "Aldose 1-epimerase (protein, UniProt Q97V88 1-262)", "chain": "MKIKKGDTEAEILTKGAYLYSFKIGNRDMILRGDLERPTRGGMAILIPFANRVKNAEYVFEGVKYTLPQNREGNAIHGLVMDKEFNVIGKSEDSISLQYILEHEGYPSKLDCVITYKVFKYGLRIKIVVRNVGNKRAPLTVGAHPYFITADDWRIVVEKEESIKKCISFNKIPTGELVKTKLEHTDYDDCFLISGGIQLHSSYSKVRITRRNMPFVQIYTGVRGSIAIEPMSGAPDAYHNGLGLKILEPNESSYFAFAFRFH"}, "B7": {"name": "Acetate kinase (protein, UniProt Q980R6 1-302)", "chain": "MARQPLMIYVGIDPGSETYAFAFVDELGNLIKYFEICTDLVEKSSIFLAKLIADYRPMAVALPSGHGLPFYNIRNINNREIFILTLKDPLSHGPLRDFLLASKQYLSFYNSFTIPSVIELNSLPNDRKVNVIDKGTADKVASTFFYRVYLKLDNFILVEMGRRFTAIVIVINGKIVDGYGGTYLSGLDGEIAYLLHKYSRIDKSTVYNVGRNLELTRIIVEWYSDKYKLPIIVSGYNKNYLEIGKKYDFKFKEAAVGAAFIANAYSGGLLRHYISMLDSSGTPISFVRLKEWDEIISWIETL"}, "B8": {"name": "Intracellular proteinase (protein, UniProt Q97Z65 1-173)", "chain": "MDSKKVLFLVGEEFEDIELLYPFYRVMEEGFKPVIAWKEANSKVIGKHGYTVISDIAFKDVRPEDYIALVIPGGRGPEHIRTLEEVKNITRKFFELKKPVAAICHGPQILISANLVKGRKLTSVNSIKDDVIAAGGIYVDNDVVVDENLISSRVPSDLPAFASTLIKALKSIK"}, "B9": {"name": "Amidohydrolase (protein, UniProt Q97UJ5 1-286)", "chain": "MKSYYMGYVDAHTHVWFKETLPKDFFSNDSGYEYTPPSVQEIIKEMDSVNIDYIVIIAYPSREIWRTKEDFPIAMIKFLKEYGNRFSIVGGIEPNRISLNEAKDWLERQYEAGVSGFKLHPVHSHVKPNAYREEEGGLKQLELLYEFAQDHNLPVVIHTGTSVFLKARNKYADPIFVDDVAVDFPQLKIVLAHMGRPNYVPTAFQLVRIRRNLYGEISSIPPKKLLEYLPRLEEISYKTIYGSDYGGPGIKSISYNLREFLSLNISEKAKLDMGSNNPKALYKPLE"}, "B10": {"name": "3-Hydroxyacyl-CoA dehydrogenase (protein, UniProt Q97VU5 1-663)", "chain": "MKVEDIKKILVVGAGTMGHGIAEIAAISGYKVYLSDISQDILNNALERIRWSLSKLQERGQIKESVDTIMSRITTIVGLDKTVSDADFSIEASTERMDIKRQVFSKLDELLPPHAILATNTSSLPISKIAEATKRQDKVVGMHFFNPPVLMQLVEVMKGDKTSDETAKITYDLAKKFGKQPIMINKDVPGYVVNRILGQINIASCILVEKKVADYREVDAVARYKLGFPMGVFELIDYTGVDVAYYVSKSREELGIRDDIPICSLIEQKFKNNELGVKTGKGFYTYPAPGKYVKPELPKELADKLNPALILAGGVNEATRLLREGIASRDDIDLGVRLGLGLPKGIFQYADELGVDTVLKALEDLKALSGYNTFNPDPMITQMIRENKLGIKTGSGFYQYGKVEEKKMNTLIIRIEPPLAWIILNRPERLNALNPELVSELDKSLDELESRSDVRVVIITGNGRAFSAGADVSSFITLRPIDVIRLRTLRNVVNKIALYTKPIIAGINGFALGGGLELAMACDIRIASEVAQLGQPEINIGIIPGAGGTQRLPRLVGKGKAKLMIYTGDMVSAEDAYKMGLVDLVVPSNRFEEEVRRVALKIAEKSPISLLAAKLAIELGYESNIWTGQTLESTLFGLLFTTKDVEEGVKAFLEKRKPQFKGE"}, "B11": {"name": "Sugar phosphate nucleotydyl transferase (protein, UniProt Q97ZD1 1-422)", "chain": "MMTKWDISDVKVIIPIGGEATRLRPLTIETSKAAVRLLNRPLIEYTILELAKQGIKEFIFGVKGYVNYRSLFDLFKEGIGFSARYKIKPRVHFKYQPRVDSIGNADSVRINIEYYDINEPIVVVQGDNIFKLDITKALEFHESKSSLMTIVLKKYEGDLSEFGVADTTGDLAIRKFVEKPKRREDAPSDLINTGIYILSPEIRKIFKSNDVKEMYKMGKMDFGKDIIPYLINKGYPVYGYPMKEIWFDIGTPERYLDAMVTLLHTLSDSEIGGIRIDPNRRIFVQGTSPDSRKRRREIQRKFKKGLIKIEGDALIGRHCQIGDDTYIEESNIDNFTMIGKGVKIVRSAIMDRGYIGDNVHIENSIIARHVEIRSNNEKPVRIINSVIADDVIVGEGTEIINSRIYPHKFINAGSRIHDTILT"}, "B12": {"name": "SAM-dependent methyltransferase (protein, UniProt Q97YX4 1-176)", "chain": "MHHHRHYYPPEDFRRTFERPEEYLPNIFEGKKGVIVDYGCGNGFYCKYLLEFATKLYCIDINVIALKEVKEKFDSVITLSDPKEIPDNSVDFILFANSFHDMDDKQHVISEVKRILKDDGRVIIIDWRKENTGIGPPLSIRMDEKDYMGWFSNFVVEKRFNPTPYHFGLVLKRKTS"}, "B13": {"name": "ATPase AAA (protein, UniProt Q980U9 1-769)", "chain": "MSASSGEEQKPQRKELILRVMEARQKDVGRGKVRIDIDLLSQIDVSPGDVVEIEGTRKTAALAWPLSPEDTTTGEKDIIRMDGITRKNAGVSIGDKVIVRKAIVKPASTVKLAPSNFSITVDPGFISYVKKRLKEFPLVEGDTVLIPVLGQAIPFTVVQVKPAGIVLVNDDTIISISDKPVEPSRYPRVTYEDIGGMKNIIEKVRELVELPLRHPELFKRLGIEPPKGILLYGPPGVGKTLLAKAIANETDAYFTSINGPEIMSKFYGESEQRLREIFEDAKKHAPAIIFVDEIDAIAPKRDEVIGEVERRVVAQLLTLMDGLENRGNVIVIAATNRPSAVDPALRRPGRFDREIEIPLPDKQGRLEILQIHTRNMPLSKDVDLEKLADMTHGYTGADLSALVREAAMNSLRRYLPKIDLNQDKIPPEILESMEVKMEDFINAFKEIVPSGLREIYIEVPEVKWTDIGGLEEIKEELKEVVEYPLKYSELYQNSGIEPPKGILLFGPPGTGKTMLAKAVATESGANFIAVRGPEILSKWVGESEKAVREIFRKARMYAPAVIFFDEIDSIAPIRGISYDSGVTERIVNQLLAEMDGIEKLENVVVIAATNRPDILDPALLRPGRFEKLIYVPPPDKRARTEILKVHTRNIALGEDISLEDVAEKTEGYTGADLAALVREATMRAIRESMKICIDKTNENCKPTDAECRDKTMKECMKVNGVKVSLRHFEEAMRKVKPSVTQDMLQFYQNWVEKARQQLPKTTVKPSTYA"}, "B14": {"name": "Translation recovery factor (protein, UniProt Q97VU8 1-124)", "chain": "MREEEIRELYFKYFDENKLPFIQCNKCGHKFYYPRVLCPKCGSSDIEVRFSKGLGKIFAMTKVYRKDGSYVIYGIVELEEGFRMYSNIIEESQADINRKVEVIFKEINGKKYPLFKTVTHLHNF"}},
  "note": "Results are given in words; binding and its absence hold for the method and conditions named. Binding seen in cells or lysates may run through a third protein. Here binding means that the protein was enriched with, or labelled near, the bait; the list need not be complete. Tags and fused reporters may be left off the sequences shown.",
  "data": [
    {"molecular_target": "T1, N-His-aIF5A produced in Sso PH1-16 (pMJ05-N-His-aIF5A) (Sulfolobus solfataricus) (UniProt Q97ZE8)", "T1 sequence (chain, modified, recognised by anti-hypusine antibodies (hypusine or deoxyhypusine))": "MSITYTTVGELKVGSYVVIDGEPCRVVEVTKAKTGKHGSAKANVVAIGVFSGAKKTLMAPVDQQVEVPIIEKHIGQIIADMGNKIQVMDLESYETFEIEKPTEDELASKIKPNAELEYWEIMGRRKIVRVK", "assay": "affinity purification with mass spectrometry; N-His-aIF5A and co-purifying proteins from lysate of Sso PH1-16 (pMJ05-N-His-aIF5A) on Ni-NTA agarose; wash with 300 mM NaCl; whole eluate digested with trypsin, LC-MS/MS, label free quantification against a mock purification; enriched more than …", "values": [
      {"binder": "B1", "binding": "binds"},
      {"binder": "B2", "binding": "binds"},
      {"binder": "B3", "binding": "binds"},
      {"binder": "B4", "binding": "binds"},
      {"binder": "B5", "binding": "binds"},
      {"binder": "B6", "binding": "binds"},
      {"binder": "B7", "binding": "binds"},
      {"binder": "B8", "binding": "binds"},
      {"binder": "B9", "binding": "binds"},
      {"binder": "B10", "binding": "binds"},
      {"binder": "B11", "binding": "binds"},
      {"binder": "B12", "binding": "binds"},
      {"binder": "B13", "binding": "binds"},
      {"binder": "B14", "binding": "binds"}
    ]}
  ]
}
